Earlier results as cited in patent publication US7129218B2, “Use of rhamnolipids in wound healing, treatment and prevention of gum disease and periodontal regeneration” (Paradigm Biomedical, Inc., priority 1999, dated 2006).
At least one structure is not confirmed: it was looked up by name or label, or the drawing left a doubt.

Test system: mice
Settings: doses that failed to produce antidepressant effects in control animals; cited from earlier work

SMILES: CN1CCN(C2=Nc3cc(Cl)ccc3Nc3ccccc32)CC1 [clozapine]
- PCP-induced enhancement of immobility in the forced swimming test: attenuated
